Assay results reported in the supplement of paper PMC10849652.
Some of the results follow.

Sequences of proteins named here, by UniProt entry; tags and fusion partners are left off. A change or cut given only in a name is not applied to a line headed by its entry.
UniProt Q9GZT6: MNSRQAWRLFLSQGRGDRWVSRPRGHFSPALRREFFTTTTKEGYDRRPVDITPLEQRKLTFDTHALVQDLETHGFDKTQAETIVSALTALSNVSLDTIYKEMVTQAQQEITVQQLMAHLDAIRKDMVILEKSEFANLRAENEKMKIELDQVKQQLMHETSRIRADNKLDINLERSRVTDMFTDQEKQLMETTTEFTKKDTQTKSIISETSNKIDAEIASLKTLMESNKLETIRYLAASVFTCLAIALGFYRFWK
UniProt Q9P219: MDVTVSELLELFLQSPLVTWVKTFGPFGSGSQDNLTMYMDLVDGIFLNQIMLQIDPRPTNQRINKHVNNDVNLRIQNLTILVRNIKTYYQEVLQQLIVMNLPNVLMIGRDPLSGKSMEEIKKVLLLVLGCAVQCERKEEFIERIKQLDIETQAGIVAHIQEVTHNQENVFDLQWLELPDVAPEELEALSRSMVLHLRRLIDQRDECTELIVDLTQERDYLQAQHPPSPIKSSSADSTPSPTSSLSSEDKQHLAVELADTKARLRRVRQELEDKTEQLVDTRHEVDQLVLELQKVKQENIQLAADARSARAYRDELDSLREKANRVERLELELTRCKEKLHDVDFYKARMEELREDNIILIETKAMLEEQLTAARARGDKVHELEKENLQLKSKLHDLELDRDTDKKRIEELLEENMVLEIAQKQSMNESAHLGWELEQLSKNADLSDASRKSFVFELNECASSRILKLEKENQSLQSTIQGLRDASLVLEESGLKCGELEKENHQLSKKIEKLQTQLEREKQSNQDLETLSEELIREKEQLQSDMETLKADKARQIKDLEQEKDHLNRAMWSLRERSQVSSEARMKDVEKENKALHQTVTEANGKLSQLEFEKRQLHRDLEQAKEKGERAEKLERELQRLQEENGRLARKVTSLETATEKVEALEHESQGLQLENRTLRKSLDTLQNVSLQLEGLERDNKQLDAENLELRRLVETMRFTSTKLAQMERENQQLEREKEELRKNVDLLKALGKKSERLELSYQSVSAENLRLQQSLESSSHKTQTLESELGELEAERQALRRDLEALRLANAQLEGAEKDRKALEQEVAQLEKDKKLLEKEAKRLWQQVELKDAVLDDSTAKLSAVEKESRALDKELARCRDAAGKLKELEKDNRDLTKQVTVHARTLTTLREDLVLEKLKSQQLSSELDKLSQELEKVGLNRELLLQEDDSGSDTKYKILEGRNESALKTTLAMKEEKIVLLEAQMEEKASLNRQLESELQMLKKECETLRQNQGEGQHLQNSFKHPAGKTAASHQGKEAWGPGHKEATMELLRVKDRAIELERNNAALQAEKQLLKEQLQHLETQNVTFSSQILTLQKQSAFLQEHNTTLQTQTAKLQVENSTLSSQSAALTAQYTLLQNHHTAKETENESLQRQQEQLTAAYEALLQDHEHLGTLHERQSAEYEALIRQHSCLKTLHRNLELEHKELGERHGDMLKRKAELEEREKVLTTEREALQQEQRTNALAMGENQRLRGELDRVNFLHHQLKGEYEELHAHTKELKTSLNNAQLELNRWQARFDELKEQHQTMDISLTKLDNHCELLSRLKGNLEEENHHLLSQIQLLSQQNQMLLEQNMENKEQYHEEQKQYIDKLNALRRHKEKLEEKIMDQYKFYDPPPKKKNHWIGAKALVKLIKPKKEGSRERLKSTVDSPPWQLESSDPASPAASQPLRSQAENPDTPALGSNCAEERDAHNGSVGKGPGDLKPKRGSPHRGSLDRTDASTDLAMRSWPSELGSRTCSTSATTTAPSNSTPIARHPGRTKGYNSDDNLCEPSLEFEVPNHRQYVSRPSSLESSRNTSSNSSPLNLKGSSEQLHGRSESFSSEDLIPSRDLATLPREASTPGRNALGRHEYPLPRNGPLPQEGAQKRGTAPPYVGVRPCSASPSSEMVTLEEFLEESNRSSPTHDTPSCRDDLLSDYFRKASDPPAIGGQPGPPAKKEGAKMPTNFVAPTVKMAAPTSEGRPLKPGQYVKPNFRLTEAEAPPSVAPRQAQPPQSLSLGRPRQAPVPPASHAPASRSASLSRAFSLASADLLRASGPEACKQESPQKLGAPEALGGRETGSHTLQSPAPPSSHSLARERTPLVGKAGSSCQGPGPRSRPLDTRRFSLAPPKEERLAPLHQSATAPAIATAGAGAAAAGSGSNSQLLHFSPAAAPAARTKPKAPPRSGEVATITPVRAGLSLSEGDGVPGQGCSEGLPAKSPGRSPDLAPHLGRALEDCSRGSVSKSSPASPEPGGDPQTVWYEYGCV
UniProt Q13191, whole entry, looked up: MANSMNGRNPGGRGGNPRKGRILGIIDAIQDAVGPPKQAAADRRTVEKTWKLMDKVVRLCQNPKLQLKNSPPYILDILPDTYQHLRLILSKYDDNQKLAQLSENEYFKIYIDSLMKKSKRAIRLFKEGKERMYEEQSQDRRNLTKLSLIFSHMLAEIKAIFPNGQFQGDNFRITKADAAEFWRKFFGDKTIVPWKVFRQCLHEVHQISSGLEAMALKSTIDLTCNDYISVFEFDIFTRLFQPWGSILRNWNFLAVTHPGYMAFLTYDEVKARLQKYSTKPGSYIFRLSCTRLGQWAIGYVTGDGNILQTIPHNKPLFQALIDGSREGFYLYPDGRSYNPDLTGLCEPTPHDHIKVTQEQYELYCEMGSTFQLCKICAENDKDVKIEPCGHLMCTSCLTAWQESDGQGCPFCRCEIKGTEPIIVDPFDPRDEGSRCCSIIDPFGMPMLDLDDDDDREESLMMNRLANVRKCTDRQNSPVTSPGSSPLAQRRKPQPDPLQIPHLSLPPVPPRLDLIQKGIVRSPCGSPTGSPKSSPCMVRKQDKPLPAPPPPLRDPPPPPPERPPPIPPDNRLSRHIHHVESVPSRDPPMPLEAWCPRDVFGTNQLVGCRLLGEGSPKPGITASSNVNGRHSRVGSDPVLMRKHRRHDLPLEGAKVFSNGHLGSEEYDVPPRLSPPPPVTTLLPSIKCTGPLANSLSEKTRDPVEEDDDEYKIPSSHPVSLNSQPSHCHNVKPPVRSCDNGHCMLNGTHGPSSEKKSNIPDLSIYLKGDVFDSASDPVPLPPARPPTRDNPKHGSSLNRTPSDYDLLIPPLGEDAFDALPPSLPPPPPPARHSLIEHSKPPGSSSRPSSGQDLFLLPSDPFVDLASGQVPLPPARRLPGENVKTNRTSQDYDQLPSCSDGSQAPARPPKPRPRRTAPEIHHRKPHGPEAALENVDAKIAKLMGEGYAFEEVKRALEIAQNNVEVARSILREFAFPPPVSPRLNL
UniProt P50991: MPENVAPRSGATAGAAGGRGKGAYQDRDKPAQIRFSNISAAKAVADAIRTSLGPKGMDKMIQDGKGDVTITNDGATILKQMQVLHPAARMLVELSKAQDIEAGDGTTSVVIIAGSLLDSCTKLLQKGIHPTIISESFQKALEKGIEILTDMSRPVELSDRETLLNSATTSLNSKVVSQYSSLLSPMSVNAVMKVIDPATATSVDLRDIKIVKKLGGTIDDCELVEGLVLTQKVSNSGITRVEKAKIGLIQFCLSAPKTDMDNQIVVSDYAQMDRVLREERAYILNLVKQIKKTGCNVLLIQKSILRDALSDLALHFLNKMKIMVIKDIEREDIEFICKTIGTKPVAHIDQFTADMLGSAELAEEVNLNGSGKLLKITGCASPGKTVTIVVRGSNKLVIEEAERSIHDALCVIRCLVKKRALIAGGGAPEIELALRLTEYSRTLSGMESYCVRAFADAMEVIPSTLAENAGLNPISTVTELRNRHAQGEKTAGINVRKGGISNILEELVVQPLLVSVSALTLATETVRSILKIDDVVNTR
UniProt P20810: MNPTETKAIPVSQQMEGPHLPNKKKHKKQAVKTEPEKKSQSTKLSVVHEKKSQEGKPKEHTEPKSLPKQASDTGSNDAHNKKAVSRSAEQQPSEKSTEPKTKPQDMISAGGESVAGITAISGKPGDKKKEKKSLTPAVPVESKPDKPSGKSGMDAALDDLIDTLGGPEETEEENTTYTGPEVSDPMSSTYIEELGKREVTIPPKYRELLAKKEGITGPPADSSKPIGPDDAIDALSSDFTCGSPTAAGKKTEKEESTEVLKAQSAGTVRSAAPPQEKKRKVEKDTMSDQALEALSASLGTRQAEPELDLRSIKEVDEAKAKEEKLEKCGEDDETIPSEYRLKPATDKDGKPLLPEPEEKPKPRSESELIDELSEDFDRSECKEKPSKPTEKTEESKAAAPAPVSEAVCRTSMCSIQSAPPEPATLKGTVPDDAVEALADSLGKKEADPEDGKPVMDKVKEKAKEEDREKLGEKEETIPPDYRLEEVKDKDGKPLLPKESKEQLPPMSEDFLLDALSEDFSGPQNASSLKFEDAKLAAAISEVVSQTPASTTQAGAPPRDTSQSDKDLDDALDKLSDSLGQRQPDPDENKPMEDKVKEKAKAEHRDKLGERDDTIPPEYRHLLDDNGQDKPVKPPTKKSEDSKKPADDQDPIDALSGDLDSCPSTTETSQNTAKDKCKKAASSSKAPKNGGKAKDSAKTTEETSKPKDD
UniProt Q7Z6B0: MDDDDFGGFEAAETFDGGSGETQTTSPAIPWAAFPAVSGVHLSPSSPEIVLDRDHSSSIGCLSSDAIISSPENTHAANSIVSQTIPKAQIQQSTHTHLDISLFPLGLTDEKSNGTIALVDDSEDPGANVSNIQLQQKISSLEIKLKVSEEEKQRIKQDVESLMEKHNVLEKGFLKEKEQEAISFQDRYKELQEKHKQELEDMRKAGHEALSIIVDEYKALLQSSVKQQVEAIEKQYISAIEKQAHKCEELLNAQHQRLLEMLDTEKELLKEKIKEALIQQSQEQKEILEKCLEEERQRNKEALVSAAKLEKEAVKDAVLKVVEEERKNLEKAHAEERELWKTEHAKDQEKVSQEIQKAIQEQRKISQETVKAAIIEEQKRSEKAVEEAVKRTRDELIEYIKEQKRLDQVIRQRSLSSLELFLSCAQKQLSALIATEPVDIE
UniProt A6NKD9: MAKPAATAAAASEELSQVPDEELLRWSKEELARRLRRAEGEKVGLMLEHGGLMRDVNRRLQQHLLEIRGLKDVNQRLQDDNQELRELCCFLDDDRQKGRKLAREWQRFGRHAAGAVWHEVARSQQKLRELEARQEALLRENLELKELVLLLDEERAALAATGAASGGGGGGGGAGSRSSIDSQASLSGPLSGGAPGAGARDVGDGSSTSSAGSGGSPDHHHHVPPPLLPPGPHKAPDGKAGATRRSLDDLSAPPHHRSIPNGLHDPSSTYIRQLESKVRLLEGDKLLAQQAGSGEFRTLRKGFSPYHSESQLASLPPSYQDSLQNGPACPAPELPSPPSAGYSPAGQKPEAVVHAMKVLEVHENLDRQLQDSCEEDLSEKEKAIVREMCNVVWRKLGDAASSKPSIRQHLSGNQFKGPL
UniProt Q13185: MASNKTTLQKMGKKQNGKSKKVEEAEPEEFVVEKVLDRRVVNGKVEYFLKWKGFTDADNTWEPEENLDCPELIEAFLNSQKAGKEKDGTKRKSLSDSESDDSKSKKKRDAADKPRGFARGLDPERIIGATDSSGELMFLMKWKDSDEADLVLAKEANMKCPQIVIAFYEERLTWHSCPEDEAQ
UniProt O95400: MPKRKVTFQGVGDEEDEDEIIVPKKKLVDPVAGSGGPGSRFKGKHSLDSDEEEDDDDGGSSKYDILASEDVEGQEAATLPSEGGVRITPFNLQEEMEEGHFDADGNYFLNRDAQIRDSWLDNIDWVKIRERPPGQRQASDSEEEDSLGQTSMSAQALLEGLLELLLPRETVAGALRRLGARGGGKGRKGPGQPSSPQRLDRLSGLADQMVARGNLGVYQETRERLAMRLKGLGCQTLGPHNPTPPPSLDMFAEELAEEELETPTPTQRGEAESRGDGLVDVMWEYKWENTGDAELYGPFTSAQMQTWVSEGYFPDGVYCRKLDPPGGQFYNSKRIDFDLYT
UniProt O60826, whole entry, looked up: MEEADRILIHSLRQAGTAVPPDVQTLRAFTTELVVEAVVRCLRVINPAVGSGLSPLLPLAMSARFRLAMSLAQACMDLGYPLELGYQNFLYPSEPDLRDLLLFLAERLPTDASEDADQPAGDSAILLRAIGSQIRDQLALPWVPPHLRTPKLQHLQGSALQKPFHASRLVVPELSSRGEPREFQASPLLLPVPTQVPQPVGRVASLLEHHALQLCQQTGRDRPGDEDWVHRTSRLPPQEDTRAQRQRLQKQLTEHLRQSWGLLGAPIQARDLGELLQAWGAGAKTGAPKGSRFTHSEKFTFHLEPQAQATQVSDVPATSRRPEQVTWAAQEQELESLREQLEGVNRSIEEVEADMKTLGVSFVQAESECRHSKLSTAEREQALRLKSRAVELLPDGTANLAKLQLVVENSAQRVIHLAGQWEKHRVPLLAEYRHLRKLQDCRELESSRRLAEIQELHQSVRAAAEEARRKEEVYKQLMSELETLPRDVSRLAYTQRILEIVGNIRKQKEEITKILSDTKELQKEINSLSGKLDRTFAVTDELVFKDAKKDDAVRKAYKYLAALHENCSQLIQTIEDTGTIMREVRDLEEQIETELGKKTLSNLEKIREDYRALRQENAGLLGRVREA

Tests used:
Test in all cases: log2 fold change, soluble protein after heating vs DMSO (PISA); higher = thermal stabilisation; K562 lysate, 10 uM; active = over 0.2 and 3.5 SD of the protein, either way, in both replicates (recomputed)
lapatinib = compound: CS(=O)(=O)CCNCc1ccc(-c2ccc3ncnc(Nc4ccc(OCc5cccc(F)c5)c(Cl)c4)c3c2)o1 [lapatinib]
Method in brief: (§1)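 Soluble protein was defined as the supernatant remaining after 21,000xg for 90 min, following pooling of heated aliquots and adjustment to 0.5% NP-40 at 4°C. Before that, crude K562 extract at 1 mg/mL protein in PBS pH 7.4 with 1 mM MgCl2 was treated with 10 μM compound for 30 min and heated for 3 min across 48°C-58°C. Quantification used TMTpro 16plex LC-MS/MS with channel sums equalised, and values are log-two fold changes in thermal stability relative to solvent controls from duplicates.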

pictilisib = compound: CS(=O)(=O)N1CCN(Cc2cc3nc(-c4cccc5[nH]ncc45)nc(N4CCOCC4)c3s2)CC1 [pictilisib]
Method in brief: as §1

crizotinib = compound: C[C@@H](Oc1cc(-c2cnn(C3CCNCC3)c2)cnc1N)c1c(Cl)ccc(F)c1Cl [crizotinib]
Method in brief: as §1

[1] = compound: C[C@H](C1=CC=C(C=C1)C(=O)NC2=C3C=CNC3=NC=C2)N
Method in brief: as §1

duvelisib = compound: C[C@H](Nc1ncnc2nc[nH]c12)c1cc2cccc(Cl)c2c(=O)n1-c1ccccc1 [duvelisib]
Method in brief: as §1

gandotinib = compound: Cc1cc(Nc2cc(CN3CCOCC3)c3nc(C)c(Cc4ccc(Cl)cc4F)n3n2)n[nH]1 [gandotinib]
Method in brief: as §1

tozasertib = compound: Cc1cc(Nc2cc(N3CCN(C)CC3)nc(Sc3ccc(NC(=O)C4CC4)cc3)n2)n[nH]1 [tozasertib]
Method in brief: as §1

doramapimod = compound: Cc1ccc(-n2nc(C(C)(C)C)cc2NC(=O)Nc2ccc(OCCN3CCOCC3)c3ccccc23)cc1 [doramapimod]
Method in brief: as §1

bafetinib = compound: Cc1ccc(NC(=O)c2ccc(CN3CC[C@H](N(C)C)C3)c(C(F)(F)F)c2)cc1Nc1nccc(-c2cncnc2)n1 [bafetinib]
Method in brief: as §1

[2] = compound: Cc1cccc(CC(=O)N2CCc3c2ccc(-c2cn(C)c4ncnc(N)c24)c3F)n1
Method in brief: as §1

nilotinib = compound: Cc1cn(-c2cc(NC(=O)c3ccc(C)c(Nc4nccc(-c5cccnc5)n4)c3)cc(C(F)(F)F)c2)cn1 [nilotinib]
Method in brief: as §1

[3] = compound: Cc1nc(Nc2n[nH]c3c2CN(C(=O)N[C@H](CN(C)C)c2ccccc2)C3(C)C)c2sccc2n1
Method in brief: as §1

dasatinib = compound: Cc1nc(Nc2ncc(C(=O)Nc3c(C)cccc3Cl)s2)cc(N2CCN(CCO)CC2)n1 [dasatinib]
Method in brief: as §1

[4] = compound: Cc1ncc(-c2ccnc(Nc3ccc(S(C)(=O)=O)cc3)n2)n1C(C)C
Method in brief: as §1

[5] = compound: Cn1cc(-c2ccc3c(c2)CCN3C(=O)Cc2cccc(C(F)(F)F)c2)c2c(N)ncnc21
Method in brief: as §1

quisinostat = compound: Cn1cc(CNCC2CCN(c3ncc(C(=O)NO)cn3)CC2)c2ccccc21 [quisinostat]
Method in brief: as §1

tipifarnib = compound: Cn1cncc1[C@@](N)(c1ccc(Cl)cc1)c1ccc2c(c1)c(-c1cccc(Cl)c1)cc(=O)n2C [tipifarnib]
Method in brief: as §1

[6] = compound: NC(=O)Nc1cc(-c2cccc(F)c2)sc1C(=O)N[C@H]1CCCNC1
Method in brief: as §1

[7] = compound: NC(=O)c1cnc(N[C@@H]2CCCC[C@@H]2N)nc1Nc1cccc(-n2nccn2)c1
Method in brief: as §1

[8] = compound: NC1(c2ccc(-c3nc4ccn5c(=O)[nH]nc5c4cc3-c3ccccc3)cc2)CCC1
Method in brief: as §1

Measured: log2 fold change

CCNL2 (UniProt Q96S94)
inactive: lapatinib -0.013 | pictilisib -0.033 | crizotinib 0.004 | [1] 0.013 | duvelisib 0.061 | gandotinib -0.072 | tozasertib 0.208 | doramapimod -0.041 | bafetinib -0.148 | [2] -0.024 | nilotinib 0.046 | [3] -0.024 | dasatinib -0.02 | [4] 0.022 | [5] 0 | quisinostat -0.021 | tipifarnib 0.035 | [6] 0.05 | [7] 0.043 | [8] -0.002

CCT2 (UniProt P78371)
inactive: lapatinib -0.011 | pictilisib 0.015 | crizotinib 0.026 | [1] 0.037 | duvelisib 0.006 | gandotinib -0.045 | tozasertib 0.004 | doramapimod -0.03 | bafetinib 0.024 | [2] -0.045 | nilotinib 0.005 | [3] -0.019 | dasatinib 0.005 | [4] 0.005 | [5] -0.003 | quisinostat 0.042 | tipifarnib 0.031 | [6] -0.023 | [7] -0.007 | [8] -0.037

CD81 (UniProt P60033)
inactive: lapatinib 0.003 | pictilisib 0.053 | crizotinib -0.018 | [1] -0.119 | duvelisib 0.077 | gandotinib 0.121 | tozasertib 0.023 | doramapimod -0.022 | bafetinib 0.096 | [2] 0.053 | nilotinib -0.022 | [3] -0.012 | dasatinib 0.018 | [4] -0.07 | [5] -0.126 | quisinostat -0.196 | tipifarnib -0.07 | [6] 0.037 | [7] -0.039 | [8] -0.041

CCDC32 isoform 2 (UniProt Q9BV29)
inactive: lapatinib 0.04 | pictilisib 0.02 | crizotinib -0.021 | [1] -0.195 | duvelisib 0.024 | gandotinib 0.025 | tozasertib 0.062 | doramapimod 0.007 | bafetinib -0.087 | [2] 0.085 | nilotinib -0.009 | [3] 0.024 | dasatinib 0.021 | [4] 0.105 | [5] -0.001 | quisinostat -0.05 | tipifarnib 0.076 | [6] -0.028 | [7] -0.05 | [8] -0.03

Reprinted from the entries so far (two entries):
CD81 (UniProt P60033)
inactive: lapatinib 0.003 | pictilisib 0.053 | crizotinib -0.018 | [1] -0.119 | duvelisib 0.077 | gandotinib 0.121 | tozasertib 0.023 | doramapimod -0.022 | bafetinib 0.096 | [2] 0.053 | nilotinib -0.022 | [3] -0.012 | dasatinib 0.018 | [4] -0.07 | [5] -0.126 | quisinostat -0.196 | tipifarnib -0.07 | [6] 0.037 | [7] -0.039 | [8] -0.041

CCDC32 isoform 2 (UniProt Q9BV29)
inactive: lapatinib 0.04 | pictilisib 0.02 | crizotinib -0.021 | [1] -0.195 | duvelisib 0.024 | gandotinib 0.025 | tozasertib 0.062 | doramapimod 0.007 | bafetinib -0.087 | [2] 0.085 | nilotinib -0.009 | [3] 0.024 | dasatinib 0.021 | [4] 0.105 | [5] -0.001 | quisinostat -0.05 | tipifarnib 0.076 | [6] -0.028 | [7] -0.05 | [8] -0.03

(next part)

CCDC90B (UniProt Q9GZT6)
inactive: lapatinib 0.023 | pictilisib -0.019 | crizotinib -0.004 | [1] 0.053 | duvelisib -0.025 | gandotinib -0.064 | tozasertib 0.029 | doramapimod -0.01 | bafetinib -0.02 | [2] -0.115 | nilotinib -0.017 | [3] 0.022 | dasatinib 0.008 | [4] 0.044 | [5] 0.006 | quisinostat 0 | tipifarnib -0.035 | [6] -0.038 | [7] -0.015 | [8] 0.003

CCDC88C (UniProt Q9P219)
inactive: lapatinib 0.033 | pictilisib 0.153 | crizotinib 0.023 | [1] -0.117 | duvelisib 0.042 | gandotinib 0.034 | tozasertib 0.232 | doramapimod -0.032 | bafetinib -0.064 | [2] 0.034 | nilotinib 0.091 | [3] 0.072 | dasatinib -0.001 | [4] 0.113 | [5] 0.026 | quisinostat 0.021 | tipifarnib 0.007 | [6] -0.003 | [7] 0.017 | [8] 0.327

CBLB (UniProt Q13191)
inactive: lapatinib -0.023 | pictilisib 0.014 | crizotinib -0.071 | [1] -0.113 | duvelisib -0.058 | gandotinib 0.087 | tozasertib -0.18 | doramapimod 0.01 | bafetinib 0.055 | [2] 0.029 | nilotinib -0.023 | [3] 0.064 | dasatinib -0.228 | [4] 0.124 | [5] 0.095 | quisinostat -0.071 | tipifarnib -0.023 | [6] 0.033 | [7] -0.002 | [8] 0.028

CCT4 (UniProt P50991)
inactive: lapatinib -0.023 | pictilisib 0 | crizotinib 0.017 | [1] -0.021 | duvelisib 0.048 | gandotinib -0.029 | tozasertib 0.015 | doramapimod 0.036 | bafetinib -0.006 | [2] -0.028 | nilotinib 0.04 | [3] -0.001 | dasatinib 0.047 | [4] 0.025 | [5] 0.04 | quisinostat 0.03 | tipifarnib -0.004 | [6] -0.031 | [7] -0.004 | [8] 0.025

CAST isoform 6 (UniProt P20810)
inactive: lapatinib 0.031 | pictilisib 0.011 | crizotinib 0.028 | [1] 0.002 | duvelisib 0.014 | gandotinib 0.029 | tozasertib -0.011 | doramapimod -0.057 | bafetinib 0.031 | [2] -0.016 | nilotinib 0.007 | [3] 0.028 | dasatinib 0.049 | [4] 0.007 | [5] -0.03 | quisinostat 0.033 | tipifarnib -0.028 | [6] -0.038 | [7] -0.02 | [8] 0.001

CCDC91 (UniProt Q7Z6B0)
inactive: lapatinib 0.015 | pictilisib -0.006 | crizotinib 0.003 | [1] 0.061 | duvelisib 0.016 | gandotinib -0.003 | tozasertib 0.031 | doramapimod -0.005 | bafetinib 0.008 | [2] -0.04 | nilotinib 0.018 | [3] 0.011 | dasatinib -0.02 | [4] 0.016 | [5] 0.014 | quisinostat -0.004 | tipifarnib 0.008 | [6] 0.008 | [7] -0.012 | [8] 0.003

CCDC85C (UniProt A6NKD9)
inactive: lapatinib 0.118 | pictilisib -0.002 | crizotinib 0.02 | [1] -0.076 | duvelisib 0.082 | gandotinib 0.145 | tozasertib 0.082 | doramapimod -0.132 | bafetinib -0.036 | [2] 0.032 | nilotinib 0.093 | [3] 0.113 | dasatinib -0.062 | [4] -0.111 | [5] 0.004 | quisinostat 0.09 | tipifarnib -0.079 | [6] 0.063 | [7] 0.01

CBX3 (UniProt Q13185)
inactive: lapatinib 0.001 | pictilisib 0.008 | crizotinib 0.008 | [1] -0.178 | duvelisib 0.032 | gandotinib 0.03 | tozasertib -0.023 | doramapimod -0.08 | bafetinib 0.157 | [2] 0.092 | nilotinib 0.036 | [3] -0.06 | dasatinib 0.021 | [4] 0.066 | [5] -0.097 | quisinostat 0.142 | tipifarnib 0.033 | [6] -0.052 | [7] 0.016 | [8] 0.034

CD2BP2 (UniProt O95400)
inactive: lapatinib 0 | pictilisib -0.007 | crizotinib -0.004 | [1] 0.119 | duvelisib 0.031 | gandotinib -0.049 | tozasertib 0.025 | doramapimod -0.024 | bafetinib -0.023 | [2] -0.072 | nilotinib -0.016 | [3] -0.007 | dasatinib -0.009 | [4] 0.014 | [5] 0.008 | quisinostat -0.023 | tipifarnib -0.05 | [6] 0.007 | [7] 0.022 | [8] 0.021

CC2D1A (UniProt Q6P1N0)
inactive: lapatinib 0.038 | pictilisib -0.002 | crizotinib -0.057 | [1] -0.006 | duvelisib -0.003 | gandotinib 0.01 | tozasertib 0.053 | doramapimod 0.058 | bafetinib -0.049 | [2] -0.01 | nilotinib -0.013 | [3] -0.011 | dasatinib -0.022 | [4] -0.003 | [5] -0.031 | quisinostat -0.047 | tipifarnib 0.023 | [6] -0.007 | [7] 0.023 | [8] 0.043

CCZ1 (UniProt P86791)
inactive: lapatinib 0.012 | pictilisib -0.019 | crizotinib 0.014 | [1] -0.033 | duvelisib 0.033 | gandotinib 0.014 | tozasertib 0.002 | doramapimod -0.004 | bafetinib -0.011 | [2] 0.042 | nilotinib 0.01 | [3] -0.042 | dasatinib 0.015 | [4] -0.041 | [5] 0.018 | quisinostat -0.016 | tipifarnib 0.004 | [6] 0.025 | [7] 0.008 | [8] 0.03

CCDC22 (UniProt O60826)
inactive: lapatinib -0.002 | pictilisib -0.017 | crizotinib -0.036 | [1] -0.014 | duvelisib -0.016 | gandotinib -0.056 | tozasertib 0.03 | doramapimod 0.023 | bafetinib -0.035 | [2] -0.005 | nilotinib 0.007 | [3] -0.018 | dasatinib -0.055 | [4] -0.005 | [5] -0.006 | quisinostat -0.006 | tipifarnib 0.012 | [6] 0.041 | [7] 0.025 | [8] -0.017
